Data source: PubChem BioAssay AID1671195 (Yale University, 2021)
Shown is an unselected part of about 22,000 reagents tested. About 1,510 of them (6.9%) were called active. 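Active includes knockdowns raising or lowering LDL uptake; positive z-scores mean more uptake, negative mean less.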 Reagents against one gene are numbered here. Reagent sequences are not shown.

Test: 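Regulators of LDL receptor activity judged by labelled LDL uptake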 (primary screen)
System: human Huh7 hepatoma cells
Reagents: siRNA pool against human genes, 18 nM
Duration: about 2 to 2.5 days of knockdown, then 8 h LDL uptake
Conditions: DiI-labelled LDL at 30 µg/ml for 8 h, in lipoprotein-deficient serum medium
Measured: 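Per-cell DiI-LDL intensity by automated imaging; well means scaled to the plate median and given as a robust z-score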
Reading the numbers: robust z-score: higher = more LDL uptake after knockdown
Rule for the call: 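Active when two or more replicates show a robust z-score above 2 or below -2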

The opening 8 entries, to show the layout:
| Gene | reagent | robust z-score, replicate 1 | robust z-score, replicate 2 | robust z-score, replicate 3 | outcome |
| --- | --- | --- | --- | --- | --- |
| TMEM234 (GeneID 56063) | 1 | -1.09 | 0.0413 | -1.44 | inactive |
| LTA4H (GeneID 4048) | 1 | -0.982 | -0.433 | -1.25 | inactive |
| INTS9 (GeneID 55756) | 1 | -0.531 | -2.55 | -0.791 | inactive |
| AEBP1 (GeneID 165) | 1 | -1.36 | -1.06 | -1.27 | inactive |
| LOC388790 (retired record) (GeneID 388790) | 1 | 0.168 | -0.0686 | 0.257 | inactive |
| CA5BP1 (GeneID 340591) | 1 | -0.335 | -0.291 | -0.42 | inactive |
| PLB1 (GeneID 151056) | 1 | 0.72 | 0.983 | 0.622 | inactive |
| RAP1GDS1 (GeneID 5910) | 1 | -0.792 | -1.15 | -0.252 | inactive |

The list itself, repeating the preview:
| Gene | reagent | robust z-score, replicate 1 | robust z-score, replicate 2 | robust z-score, replicate 3 | outcome |
| --- | --- | --- | --- | --- | --- |
| TMEM234 (GeneID 56063) | 1 | -1.09 | 0.0413 | -1.44 | inactive |
| LTA4H (GeneID 4048) | 1 | -0.982 | -0.433 | -1.25 | inactive |
| INTS9 (GeneID 55756) | 1 | -0.531 | -2.55 | -0.791 | inactive |
| AEBP1 (GeneID 165) | 1 | -1.36 | -1.06 | -1.27 | inactive |
| LOC388790 (retired record) (GeneID 388790) | 1 | 0.168 | -0.0686 | 0.257 | inactive |
| CA5BP1 (GeneID 340591) | 1 | -0.335 | -0.291 | -0.42 | inactive |
| PLB1 (GeneID 151056) | 1 | 0.72 | 0.983 | 0.622 | inactive |
| RAP1GDS1 (GeneID 5910) | 1 | -0.792 | -1.15 | -0.252 | inactive |
| IFNA8 (GeneID 3445) | 1 | 0.44 | -0.219 | 1.07 | inactive |
| KATNB1 (GeneID 10300) | 1 | -0.282 | 0.65 | 0.024 | inactive |
| FABP4 (GeneID 2167) | 1 | 1.44 | -0.261 | -2.79 | inactive |
| FAM209A (GeneID 200232) | 1 | 1.13 | 1.51 | 1.35 | inactive |
| KCNH6 (GeneID 81033) | 1 | -1.08 | -1.56 | -0.645 | inactive |
| KAAG1 (GeneID 353219) | 1 | 2.22 | 1.94 | 2.38 | active |
| GFI1 (GeneID 2672) | 1 | -0.264 | -0.48 | -0.767 | inactive |
| GRAMD2A (GeneID 196996) | 1 | 0.0706 | 0.21 | -0.411 | inactive |
| LIAT1 (GeneID 400566) | 1 | -0.458 | -0.571 | -0.498 | inactive |
| STRN4 (GeneID 29888) | 1 | -2.38 | -0.943 | -3.02 | active |
| KLHL40 (GeneID 131377) | 1 | 0.65 | 2.23 | 1.92 | active |
| CELF3 (GeneID 11189) | 1 | 1.46 | 1.41 | 2.02 | inactive |
| ZIC5 (GeneID 85416) | 1 | -1.54 | -1.72 | -1.39 | inactive |
| PTMA (GeneID 5757) | 1 | -0.97 | -0.978 | -1 | inactive |
| RPS6KA4 (GeneID 8986) | 1 | 0.829 | 3.83 | 1.72 | inactive |
| MAPK8IP2 (GeneID 23542) | 1 | -0.674 | -0.35 | -1.37 | inactive |
| PHF20 (GeneID 51230) | 1 | 2.48 | 1.81 | 2.09 | active |
| POLM (GeneID 27434) | 1 | 0.349 | -0.239 | 0.181 | inactive |
| TPM1 (GeneID 7168) | 1 | 0.558 | -1.06 | 1.42 | inactive |
| PFAS (GeneID 5198) | 1 | 2.27 | 1.73 | 1.26 | active |
| NFKBIA (GeneID 4792) | 1 | 2.41 | 1.97 | 3.04 | active |
| TPRA1 (GeneID 131601) | 1 | 0.961 | 0.338 | 0.593 | inactive |
| OR4N2 (GeneID 390429) | 1 | -1.14 | -1.03 | -1.24 | inactive |
| DCAF10 (GeneID 79269) | 1 | -0.237 | 0.00522 | -0.455 | inactive |
| SORD (GeneID 6652) | 1 | 0.0394 | -0.954 | -0.237 | inactive |
| SKA3 (GeneID 221150) | 1 | -0.2 | -0.33 | -0.146 | inactive |
| TBC1D16 (GeneID 125058) | 1 | -0.539 | -0.677 | -0.344 | inactive |
| ATP1A1 (GeneID 476) | 1 | 2.12 | 1.45 | 0.969 | inactive |
| LOC100288254 (GeneID 100288254) | 1 | 2.2 | 0.781 | 1.83 | inactive |
| ARPC1B (GeneID 10095) | 1 | 0.553 | -0.114 | 0.22 | inactive |
| PIWIL3 (GeneID 440822) | 1 | 0.0776 | -0.0894 | 0.268 | inactive |
| RASL10A (GeneID 10633) | 1 | 0.289 | -0.652 | -0.19 | inactive |
| LRRIQ4 (GeneID 344657) | 1 | -1.29 | -1.09 | -1.13 | inactive |
| RPSAP20 (GeneID 127406) | 1 | 0.761 | 0.656 | 0.138 | inactive |
| ZFP91 (GeneID 80829) | 1 | -1.01 | -0.666 | -0.785 | inactive |
| NAP1L5 (GeneID 266812) | 1 | 0.386 | 0.337 | 0.486 | inactive |
| UBB (GeneID 7314) | 1 | -1.78 | 0.609 | -2.25 | inactive |
| FOXL2 (GeneID 668) | 1 | 1.33 | 0.944 | 0.404 | inactive |
| LINC01061 (GeneID 401149) | 1 | 0.414 | 0.0157 | 0.411 | inactive |
| FRMPD3 (GeneID 84443) | 1 | 0.439 | -0.148 | -0.168 | inactive |
| ZNF681 (GeneID 148213) | 1 | -2.05 | -1.71 | -0.697 | inactive |
| FOXH1 (GeneID 8928) | 1 | -0.515 | -0.822 | -0.401 | inactive |
| DIXDC1 (GeneID 85458) | 1 | 0.924 | 0.807 | 0.81 | inactive |
| LRRC26 (GeneID 389816) | 1 | -1.07 | -1.23 | -0.826 | inactive |
| LOC401396 (retired record) (GeneID 401396) | 1 | -1.05 | -1.36 | -1.25 | inactive |
| ZNF839P4 (GeneID 389906) | 1 | 0.748 | -0.239 | 0.304 | inactive |
| ZNF839P4 (GeneID 389906) | 2 | 0.109 | -0.031 | 0.21 | inactive |
| LOC441012 (retired record) (GeneID 441012) | 1 | -0.137 | 0.15 | -0.0595 | inactive |
| ALKBH7 (GeneID 84266) | 1 | -0.235 | -0.0324 | -0.123 | inactive |
| HOATZ (GeneID 399949) | 1 | -0.963 | -1.35 | -1.55 | inactive |
| RAD1 (GeneID 5810) | 1 | -0.599 | -1.31 | -1.33 | inactive |
| ACAA2 (GeneID 10449) | 1 | 0.376 | 1.42 | 0.594 | inactive |
| TFF1 (GeneID 7031) | 1 | -0.257 | 0.731 | 0.767 | inactive |
| CD200 (GeneID 4345) | 1 | 1.64 | 1.43 | 1.92 | inactive |
| LOC341651 (retired record) (GeneID 341651) | 1 | 0.837 | 1.02 | 0.875 | inactive |
| SLC43A1 (GeneID 8501) | 1 | -0.538 | -0.249 | -0.401 | inactive |
| AP3M2 (GeneID 10947) | 1 | -1.64 | 1.92 | -0.0952 | inactive |
| LOC440818 (retired record) (GeneID 440818) | 1 | -2.77 | 0.559 | 0.658 | inactive |
| KCTD11 (GeneID 147040) | 1 | 0.154 | 0.474 | 0.771 | inactive |
| LOC400602 (retired record) (GeneID 400602) | 1 | 2.51 | 1.86 | 2.18 | active |
